Source: article PMC10704431, “A complex with poly(A)-binding protein and EWS facilitates the transcriptional function of oncogenic ETS transcription factors in prostate cells” (The Journal of Biological Chemistry, 2023)

Chains of the proteins cited; added tags and fusions are not shown. Residues count along the entry.
UniProt Q01844, residues 356-656: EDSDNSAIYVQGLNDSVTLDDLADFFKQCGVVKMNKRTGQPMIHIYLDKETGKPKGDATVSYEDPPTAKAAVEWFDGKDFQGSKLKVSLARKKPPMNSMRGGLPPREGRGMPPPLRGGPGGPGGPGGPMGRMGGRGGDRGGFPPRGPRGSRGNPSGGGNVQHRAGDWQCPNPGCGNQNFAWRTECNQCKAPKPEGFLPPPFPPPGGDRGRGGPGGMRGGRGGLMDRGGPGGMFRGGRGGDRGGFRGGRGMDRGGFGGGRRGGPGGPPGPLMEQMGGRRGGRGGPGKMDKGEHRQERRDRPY
UniProt P11940: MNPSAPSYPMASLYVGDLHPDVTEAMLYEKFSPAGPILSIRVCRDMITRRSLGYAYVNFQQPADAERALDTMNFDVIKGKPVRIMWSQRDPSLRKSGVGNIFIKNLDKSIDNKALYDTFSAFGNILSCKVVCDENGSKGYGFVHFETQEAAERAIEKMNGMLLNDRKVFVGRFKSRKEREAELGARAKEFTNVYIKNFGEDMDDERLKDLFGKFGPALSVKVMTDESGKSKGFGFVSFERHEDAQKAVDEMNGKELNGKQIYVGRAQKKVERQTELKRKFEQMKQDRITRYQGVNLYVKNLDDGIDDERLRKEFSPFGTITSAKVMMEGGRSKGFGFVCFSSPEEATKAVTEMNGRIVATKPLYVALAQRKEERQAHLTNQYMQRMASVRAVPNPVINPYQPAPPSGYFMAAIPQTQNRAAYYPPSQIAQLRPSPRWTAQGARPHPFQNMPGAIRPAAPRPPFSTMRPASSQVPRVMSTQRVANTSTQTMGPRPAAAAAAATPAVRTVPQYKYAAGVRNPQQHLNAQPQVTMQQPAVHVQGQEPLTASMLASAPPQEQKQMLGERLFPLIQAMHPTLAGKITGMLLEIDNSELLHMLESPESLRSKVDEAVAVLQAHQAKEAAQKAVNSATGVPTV

Target: hemagglutinin-tagged ctEWS expressed in PC3 cells (UniProt Q01844)
Assay: affinity purification with mass spectrometry; ctEWS immunoprecipitated from PC3 cells expressing both ctEWS and ERG; mass spectrometry; probable contaminants filtered out

binding: binds
Substance: cytoplasmic poly-adenylate-binding protein 1 (PABPC1), endogenous in PC3 cells (from UniProt P11940 1-636)

No constants are given. Whether binding was seen depends on the method and setting. In cells and extracts the contact can be indirect. These calls come from enrichment with a bait or labelling near it, and not all partners need be listed.
